For 3 molecules, binding results are on record in article doi:10.1101/2020.12.08.415711.

By UniProt entry, the sequences of proteins in these tests, tags left out. Where a name states a change or a piece, a line headed by the entry shows the natural chain unless it says otherwise.
UniProt Q9SXA1: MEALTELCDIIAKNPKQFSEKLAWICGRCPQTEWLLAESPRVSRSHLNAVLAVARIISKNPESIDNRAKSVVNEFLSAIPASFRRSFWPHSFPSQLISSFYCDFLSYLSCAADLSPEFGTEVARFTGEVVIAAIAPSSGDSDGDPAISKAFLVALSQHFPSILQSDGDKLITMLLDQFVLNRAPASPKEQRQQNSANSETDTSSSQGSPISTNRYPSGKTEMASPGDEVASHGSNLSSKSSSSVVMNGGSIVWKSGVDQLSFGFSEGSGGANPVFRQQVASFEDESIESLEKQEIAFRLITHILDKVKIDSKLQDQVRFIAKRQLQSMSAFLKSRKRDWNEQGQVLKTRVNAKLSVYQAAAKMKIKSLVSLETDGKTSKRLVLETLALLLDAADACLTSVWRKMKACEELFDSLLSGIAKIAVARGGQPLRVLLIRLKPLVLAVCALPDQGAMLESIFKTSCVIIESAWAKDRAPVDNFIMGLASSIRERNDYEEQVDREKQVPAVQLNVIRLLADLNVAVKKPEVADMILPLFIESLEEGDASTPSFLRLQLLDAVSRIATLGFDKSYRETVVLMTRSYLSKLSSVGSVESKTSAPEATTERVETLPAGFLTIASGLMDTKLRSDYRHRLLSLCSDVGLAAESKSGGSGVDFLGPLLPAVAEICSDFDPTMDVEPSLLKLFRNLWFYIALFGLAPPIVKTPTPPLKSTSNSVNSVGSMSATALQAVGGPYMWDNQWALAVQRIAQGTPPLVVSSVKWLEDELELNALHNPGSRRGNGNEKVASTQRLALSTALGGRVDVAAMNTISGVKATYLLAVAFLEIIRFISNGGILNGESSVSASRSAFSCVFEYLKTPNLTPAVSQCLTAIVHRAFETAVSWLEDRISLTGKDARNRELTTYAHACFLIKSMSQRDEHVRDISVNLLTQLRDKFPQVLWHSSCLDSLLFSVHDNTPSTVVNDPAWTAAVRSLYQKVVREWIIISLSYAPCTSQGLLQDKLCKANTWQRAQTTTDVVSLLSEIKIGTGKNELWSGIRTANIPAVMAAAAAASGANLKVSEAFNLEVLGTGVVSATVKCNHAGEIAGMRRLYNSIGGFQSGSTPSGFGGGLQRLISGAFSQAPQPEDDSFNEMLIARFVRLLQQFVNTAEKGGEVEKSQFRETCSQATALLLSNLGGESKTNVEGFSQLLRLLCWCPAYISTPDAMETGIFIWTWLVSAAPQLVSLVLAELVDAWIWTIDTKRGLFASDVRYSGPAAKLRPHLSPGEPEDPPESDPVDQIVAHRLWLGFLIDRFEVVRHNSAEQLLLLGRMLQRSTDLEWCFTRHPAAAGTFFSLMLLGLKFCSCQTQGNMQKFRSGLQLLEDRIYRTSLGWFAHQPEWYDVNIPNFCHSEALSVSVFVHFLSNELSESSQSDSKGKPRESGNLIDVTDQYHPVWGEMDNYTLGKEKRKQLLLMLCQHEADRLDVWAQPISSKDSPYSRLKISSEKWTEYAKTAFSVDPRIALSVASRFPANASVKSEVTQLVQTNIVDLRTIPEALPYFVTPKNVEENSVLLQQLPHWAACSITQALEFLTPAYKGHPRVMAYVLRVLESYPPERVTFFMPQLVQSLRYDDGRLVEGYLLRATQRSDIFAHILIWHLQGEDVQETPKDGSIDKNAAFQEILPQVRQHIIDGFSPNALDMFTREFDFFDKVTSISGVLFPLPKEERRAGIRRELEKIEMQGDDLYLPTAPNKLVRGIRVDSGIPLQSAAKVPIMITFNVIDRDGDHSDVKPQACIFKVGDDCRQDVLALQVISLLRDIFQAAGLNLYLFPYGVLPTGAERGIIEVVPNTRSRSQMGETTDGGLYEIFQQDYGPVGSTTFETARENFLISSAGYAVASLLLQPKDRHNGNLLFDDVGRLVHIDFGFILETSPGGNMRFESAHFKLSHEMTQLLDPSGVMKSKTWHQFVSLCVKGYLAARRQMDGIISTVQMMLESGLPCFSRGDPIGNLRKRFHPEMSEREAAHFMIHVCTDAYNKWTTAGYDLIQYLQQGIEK

These are yes or no findings as the source states them, for the method shown. Binding calls can cover weak binding; strength is not graded here. For part of these data: In cells and extracts the contact can be indirect.

The target in test [1] is PI4Kα1, large N-terminal part (bait of the yeast-two-hybrid screen) (Arabidopsis thaliana) (UniProt Q9SXA1). Nature of the test: two-hybrid.
Test [2] deals with HYC2-mCITRINE (Arabidopsis thaliana). Nature of the test: co-IP.

B1: NPG1 (NO POLLEN …ON 1), clones of the yeast-two-hybrid library (domain or fragment, UniProt Q8GZN1 444-704)
chain: RNLKAASRYAKEFIDATGGSVLKGWRFLALVLSAQQRFSEAEVVTDAALDETAKWDQGPLLRLKAKLKISQSNPTEAVETYRYLLALVQAQRKSFGPLRTLSQMEEDKVNEFEVWHGLAYLYSSLSHWNDVEVCLKKAGELKQYSASMLHTEGRMWEGRKEFKPALAAFLDGLLLDGSSVPCKVAVGALLSERGKDHQPTLPVARSLLSDALRIDPTNRKAWYYLGMVHKSDGRIADATDCFQAASMLEESDPIESFSTIL
Consider B1, for which the binding entry in test [1] is recorded as “binds”.

B2: NPGR2, endogenous (protein, UniProt Q66GN3 1-739)
chain: MKNSEIRPEKLHLRKLRKSLRKIRMKCLCSGEQMRHREEEDKKSEVGVGRDYNGSSALSTAESENAKKLDNGNIEEAELSLRETSSLNYEEARALLGRIEYQKGNIEAALRVFEGIDINGITVKMKTALTVREDRKHRRRSKGGFSTAPSPAMSKHAVSLLFEAIFLKAKSLQRLGRFQEAAESCRVILDIVETSLAEGASDNVTGDIKLQETLTKAVELLPELWKLADSPRDAILSYRRALLNHWKLDPETTARIQKEYAVFLLYSGEEAVPPNLRSQTEGSFIPRNNVEEAILLLMLLLRKVNLKRISWDAAILDHLSFALTIAGDLTALAKQFEELSPELLDQRELYHTLSLCYQGAGEGLVALGLLRKLFSEREDPNRTSGLLMASKICGERSGLAEEGLDYARKAIGNLGKECSQLDGAARFVLGITLTESSRMAVTETERIARQSEGIQALESADMTNPRVVHRLALENAEQRKLDSALAYAKEALKLGAESDLEVWLLLARVLSAQKRFSDAETIVDAALNETGKWEQGKLLRLKAKLRLAKGEVKDAIKTYTQLLALLQVQSKSFNSAKKLPKGYVKELMSLELGTWHDLAHIYINLSQWRDAESCLSRSRLIAPYSSVRYHIEGVLYNRRGQLEEAMEAFTTALDIDPMHVPSLTSKAEILLEVGNRSGIAVVRSFLMEALRIDRLNHSAWYNLGKMFKAEGSVSSMQEAVECFQAAVTLEETMPVEPFR
For B2, the binding entry in test [2] is listed as “binds”.

B3: NPGR2, clone of the yeast-two-hybrid library (domain or fragment, UniProt Q66GN3 414-739)
chain: LGKECSQLDGAARFVLGITLTESSRMAVTETERIARQSEGIQALESADMTNPRVVHRLALENAEQRKLDSALAYAKEALKLGAESDLEVWLLLARVLSAQKRFSDAETIVDAALNETGKWEQGKLLRLKAKLRLAKGEVKDAIKTYTQLLALLQVQSKSFNSAKKLPKGYVKELMSLELGTWHDLAHIYINLSQWRDAESCLSRSRLIAPYSSVRYHIEGVLYNRRGQLEEAMEAFTTALDIDPMHVPSLTSKAEILLEVGNRSGIAVVRSFLMEALRIDRLNHSAWYNLGKMFKAEGSVSSMQEAVECFQAAVTLEETMPVEPFR
For the molecule B3, the binding result in test [1] is recorded as “binds”.
